Assay results taken from PubChem BioAssay AID1508600 (Functional Genomics Laboratory (NCATS/FGL), 2020).
Out of some 53,000 sequences screened, about 3,700 (7%) were called active.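 The calls were made as follows: active = gene knockdowns whose robust z-score for IL-1 alpha signal is at least 2 or at most -2, so actives lie on both sides; inactive = the rest.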 The list shows a part of the results.

test: Components of the Cytosolic LPS Sensing Pathway: Gene Identification via Genome-wide siRNA Screen; settings: RAW264.7 macrophages, IL-1a HTRF, actives lie on both sides, screened at 100 nM (by protocol), cells primed 5 h with Pam3CSK4 first;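 also: robust z of the log signal after scaling to non-targeting control siRNA wells of the plate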
In short: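 Knockdown: 100 nM siRNA, 48h, RAW264.7. Stimulation: Pam3CSK4 5 h, then LipidA via TransIT-TKO 24 h. Output: supernatant IL-1a HTRF, negative-control-normalized, log robust z-score; viability by CellTiter-Glo.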

| Sequence | z-score |
| --- | --- |
| GCACAAGACCUGCAUACUATT against Ttc5 | inactive: -0.76 |
| CCUACACCUUCAGUUUGAUTT against Pramel31 | inactive: 1.64 |
| CGCAGGUUUGAGUACAAGCTT against Lman1l | inactive: -0.237 |
| GGACAAUGGUUCCUUGGAUTT against Cdc25c | inactive: 0.981 |
| CGACUGGUCUUGAUUGUUATT against H2ac6 | inactive: 1.81 |
| GGUAUCGACCACAGAUCAUTT against Plxnd1 | inactive: 1.77 |
| GCCAAGACCAUUCAGCCUUTT against Zfp579 | inactive: -0.394 |
| CGCUCUGUUAAUGCAGGAUTT against Papss1 | active: 3.22 |
| GGAUUAUGGAAAGAACUUUTT against Sort1 | inactive: 0.742 |
| GGUACUAAAUAAAAGACCGTT against Dsc2 | inactive: 1.15 |
| GCUGUGACAGAAGCUUUCGTT against Vars2 | inactive: -0.201 |
| GUGGGAUUCCUGUACAAAUTT against Olfr1118 | inactive: 1.57 |
| CGAUUUAAUGUCAACAUUGTT against Arhgap5 | inactive: -0.0577 |
| GCACGCCUCUUUCAGCUAUTT against Pitx3 | inactive: 1.26 |
| GGAAGAAGAAGAUAAAGCGTT against Grk6 | inactive: 0.184 |
| GGUGAAGGCCAAUACAUAUTT against Gatm | inactive: -0.69 |
| GCUACACCCUCUGUGAGUUTT against Csrnp2 | active: -2.07 |
| GGAAGUUUUUCCAAGAAGATT against Acadl | inactive: -0.231 |
| UAGUGUCACCUACAGAGAATT against Ercc6l2 | inactive: -0.817 |
| GGUAGCUUAUUGCUAAGGCTT against Pnn | inactive: 0.724 |
| CCAGGAUUGCUGUUCUGAATT against Vac14 | inactive: -0.11 |
| GCUUACAAGGCAUGUAUGATT against Rccd1 | active: 3.46 |

| Sequence | z-score |
| --- | --- |
| GGAUUAUGGCUUCAUUAAATT against Glmn | inactive: 0.586 |
| GGACAAUAUCAGAAAGAGUTT against Purg | inactive: 1.13 |
| GGUACUCUGAAAAGAUCGCTT against Gm4952 | inactive: 0.534 |
| GGAAAAAGCAAAUUGAGGATT against Uchl1 | inactive: -1.48 |
| GGAGCAAGACAACAAAGAUTT against Adgre5 | inactive: -0.738 |
| GGAAAUUGCACCUUUAAAGTT against Rnf130 | inactive: 0.335 |
| GGCCAUUAAUUACUACGAGTT against Ttc21a | inactive: 0.368 |
| GGGAGUUAACAAAAACAUATT against Arhgap30 | inactive: -0.0276 |
| GGAAUUUCAUGGCAAGGGUTT against Fmc1 | inactive: 0.652 |
| GGACAUUGCUGUAUUUAUCTT against Nop9 | inactive: 0.417 |
| CCUUGCUGUUCUACUUUGCTT against Olfr1309 | inactive: 1.87 |
| GGUACCUUCAAAGAAUUGUTT against Snx1 | inactive: 0.0897 |
| GGCCAAGCUAUAAGAAAUGTT against Cntnap2 | inactive: 0.201 |
| GCAGGAGUCAAAUUUUCUATT against Nemp1 | inactive: -0.795 |
| UACCUUGGGUUCUAAGGCATT against Atg2a | inactive: 1.6 |
| GGAAAAAAAAAAGCAGUGATT against Phactr4 | inactive: 0.662 |
| CCUGAACCAUGUUGAAUAUTT against Fgfbp3 | inactive: 1.09 |
| GGAGAUCUCCAUCAUCACCTT against Usp50 | inactive: -1.52 |
| GGCUACACUCUGACAGCACTT against Znhit2 | inactive: -0.666 |
| GGACUAUGGUGGGAACUAGTT against Tas2r119 | inactive: -0.564 |
| GGAUAUUUUCAAUGCUGUUTT against Large1 | inactive: -1.13 |
| GGCCAUUGUUGAAAUGUACTT against Myh14 | inactive: 0.175 |

| Sequence | z-score |
| --- | --- |
| GGGAAGCUUUACUUUUUAATT against Mapk4 | active: 2.05 |
| GCCCGCAUUCUUAUUCGAUTT against Tmem64 | inactive: -1.13 |
| GGCCUCUACUUCUUUGAGUTT against Cmtm4 | inactive: -0.903 |
| GCCUUCCUUUUUGUCAUUATT against Olfr1387 | inactive: -0.0158 |
| GCCAGUGUUAUCCAGGACUTT against Cggbp1 | inactive: 1.35 |
| CGUGGUAGGUCCCAUUAGATT against Usp13 | inactive: -1.13 |
| GCUACAUGUCAAAGAACCATT against Yars2 | inactive: 0.311 |
| GGCUCAGAUACAUCUGUUATT against Clip4 | inactive: -0.256 |
| GGAAGACCUUCAGAGAGAATT against Ell2 | active: 4.25 |
| GCUCUCAUACUUUGAACCUTT against Pank3 | inactive: 0.232 |
| GGUGGAGUUAACGAGAAACTT against Ccn1 | inactive: 0.69 |
| GUGUGCUGUCGAUGUGUCUTT against 4931422A03Rik | inactive: 0.428 |
| GGAACUCCGAGUAGACGUGTT against Smyd1 | inactive: -1.24 |
| GGCUGUGGUGCUCAAUAAGTT against Clstn2 | inactive: -1.29 |
| GCAACAAUGAGAGACCACATT against Htr5a | active: 3.27 |
| GAUAUAGUCACAGUGUUUUTT against Vmn1r218 | inactive: -0.41 |
| GGCUGACAGGGACCAAUAUTT against Trf | inactive: -0.839 |
| GGAAUCUCCCACUGUUUCCTT against Gpx2 | inactive: -0.46 |
| GCCGAGAUGGUCAUAAGCUTT against Rbbp5 | inactive: 1.99 |
| CCUACGUGAACAUGACGGUTT against Agfg1 | inactive: 0.096 |
| GGAAGACGAAGAGUUUGGATT against Aqp5 | active: 2.37 |
| GGGUGCUGUCAACAUAUGATT against Gabrq | inactive: 0.67 |

Part of the list above in another layout.
Sequence	z-score
GCCUUCCUUUUUGUCAUUATT against Olfr1387	inactive: -0.0158
CGUGGUAGGUCCCAUUAGATT against Usp13	inactive: -1.13
GAUAUAGUCACAGUGUUUUTT against Vmn1r218	inactive: -0.41
GGGUGCUGUCAACAUAUGATT against Gabrq	inactive: 0.67

Next entries follow:

| Sequence | z-score |
| --- | --- |
| GGAGUAUUAUGAAGUGUUGTT against Aip | inactive: 0.108 |
| GGACGAUUUGGGUCACCUUTT against Rabep1 | inactive: -0.278 |
| GGAAAUCGCAUUUAUUGUUTT against Olfr1090 | inactive: 0.863 |
| GGGUUAUGUGUUGAGCUCCTT against Bub3 | inactive: 0.0843 |
| GGCAUCCCUCUAGAGAACATT against Erbin | inactive: -0.332 |
| GGAGCAAGAAAAGAAAGUGTT against Zfp354c | inactive: 1.15 |
| GGAACGAGAACGAGUCCUUTT against Psd2 | inactive: -0.691 |
| UAUUAAGUGAGGGUAGUAGTT against Olfr1168 | inactive: -1.43 |
| GUAUUCGGUAAUUUGACUUTT against Olfr921 | inactive: 0.315 |
| GGACAAUGUCCUCUCGCUATT against Tgm2 | inactive: -0.683 |
| CGGUUUUGUCAAAGCCCUGTT against Junb | inactive: 0.322 |
| GGGAAGAGAGGAGAAUAUUTT against Stat4 | inactive: -1.98 |
| GGACUGCUACAAAGAACAATT against Scgb2b24 | inactive: -0.207 |
| GGAAAUGACCCACUCGUGGTT against Aff1 | inactive: 0.118 |
| GGCCCAUAAGUCCUUCACCTT against Ttc41 | inactive: 0.855 |
| GGCAGAUUGACAGUUUACCTT against Trav7d-6 | inactive: 0.196 |
| GGUUAUCCAGAGAGUGCAUTT against Arl4d | inactive: 1.01 |
| GGACUUUUAUUUUGUUAGCTT against Pacsin2 | inactive: -0.256 |
| GGACUUGGACAAACAUCAATT against Cox7a1 | inactive: -0.93 |
| GGUUUGAGAAUGUUUUAGGTT against Avpr1a | inactive: 0.00969 |
| GGAGCAUUAACUGUCUUGATT against Olfr356 | inactive: -0.679 |
| GCAUUUUGAGAAAGCAAUUTT against Rmdn1 | inactive: -0.0494 |

| Sequence | z-score |
| --- | --- |
| GAAUGAAGUGUUAUCCUGUTT against Tma7 | inactive: -0.586 |
| GGAUCCACUAAUGUGAAAATT against Trim39 | inactive: -0.445 |
| GCACCUAGCAAAAUGCCUATT against Sntn | inactive: -0.567 |
| GCCUCUGCAUAUGAUUACGTT against Myom1 | inactive: 1.24 |
| GGAUCAAUCGUUUUGCUUGTT against Epb41l2 | inactive: -0.117 |
| CCAACUGUGAUCAGUGAGCTT against Shank3 | inactive: -0.387 |
| GCGGAUGCCAGAUGAUUAUTT against Fcf1 | inactive: 0.241 |
| GGAACUUGAACUAAAAAUGTT against Eaf1 | active: 2.5 |
| GCUAAGAGUCUUUGGAACGTT against Maff | inactive: 0.447 |
| GCUCUGAGUAUUGAUGGCCTT against Hcfc1r1 | inactive: -0.819 |
| GGUGAACUUGAAGUGCCUCTT against Clec3b | inactive: 0.946 |
| CCUCAUGUCUACAAAGUUATT against Gvin1 | inactive: -1.14 |
| GGAGAAAUAGGAUGGUCACTT against Zfp46 | inactive: 0.689 |
| GGAGAUCUACUUGAAGUUATT against Kdm5d | inactive: 1.56 |
| GGUUUGAGAAUUUGACUUCTT against Plekhh3 | inactive: -0.678 |
| GGUGGCUACCUGGUGAUCUTT against A730049H05Rik | inactive: -1.76 |
| CCGUGUGGUUAAAAACUUUTT against Nktr | inactive: 0.535 |
| CCUUAGUCGCUUUGUAUGGTT against Drp2 | inactive: 0.695 |
| CGACUCCAUGUGGACUUAUTT against Gca | inactive: -1.16 |

3 records drawn at random from those above:

| Sequence | z-score |
| --- | --- |
| GGAAAUGACCCACUCGUGGTT against Aff1 | inactive: 0.118 |
| GGUACUAAAUAAAAGACCGTT against Dsc2 | inactive: 1.15 |
| GGACAAUGGUUCCUUGGAUTT against Cdc25c | inactive: 0.981 |
